Some of the results follow.
How the values were obtained:
Test in all cases: log2 fold change, soluble protein after heating vs DMSO (PISA); higher = thermal stabilisation; K562 lysate, 10 uM; active = over 0.2 and 3.5 SD of the protein, either way, in both replicates (recomputed)
nilotinib = compound: Cc1cn(-c2cc(NC(=O)c3ccc(C)c(Nc4nccc(-c5cccnc5)n4)c3)cc(C(F)(F)F)c2)cn1 [nilotinib]
Procedure, shortened: (§1)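 Dounce homogenisation of K562 pellets in PBS pH 7.4 with 1 mM MgCl2 produced a crude extract, used at 1 mg/mL protein. Exposure to 10 μM compound lasted 30 min, and aliquots were then heated for 3 min across 48°C-58°C, pooled and brought to 0.5% NP-40 at 4°C. The supernatant after 21,000xg for 90 min was quantified by TMTpro 16plex LC-MS/MS with channel sums equalised. Duplicate values are given as log-two fold change in thermal stability relative to solvent controls.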

Amino acid sequences for entries named in this document (tags omitted). A change or cut given only in a name is not applied to a line headed by its entry.
UniProt Q9P243: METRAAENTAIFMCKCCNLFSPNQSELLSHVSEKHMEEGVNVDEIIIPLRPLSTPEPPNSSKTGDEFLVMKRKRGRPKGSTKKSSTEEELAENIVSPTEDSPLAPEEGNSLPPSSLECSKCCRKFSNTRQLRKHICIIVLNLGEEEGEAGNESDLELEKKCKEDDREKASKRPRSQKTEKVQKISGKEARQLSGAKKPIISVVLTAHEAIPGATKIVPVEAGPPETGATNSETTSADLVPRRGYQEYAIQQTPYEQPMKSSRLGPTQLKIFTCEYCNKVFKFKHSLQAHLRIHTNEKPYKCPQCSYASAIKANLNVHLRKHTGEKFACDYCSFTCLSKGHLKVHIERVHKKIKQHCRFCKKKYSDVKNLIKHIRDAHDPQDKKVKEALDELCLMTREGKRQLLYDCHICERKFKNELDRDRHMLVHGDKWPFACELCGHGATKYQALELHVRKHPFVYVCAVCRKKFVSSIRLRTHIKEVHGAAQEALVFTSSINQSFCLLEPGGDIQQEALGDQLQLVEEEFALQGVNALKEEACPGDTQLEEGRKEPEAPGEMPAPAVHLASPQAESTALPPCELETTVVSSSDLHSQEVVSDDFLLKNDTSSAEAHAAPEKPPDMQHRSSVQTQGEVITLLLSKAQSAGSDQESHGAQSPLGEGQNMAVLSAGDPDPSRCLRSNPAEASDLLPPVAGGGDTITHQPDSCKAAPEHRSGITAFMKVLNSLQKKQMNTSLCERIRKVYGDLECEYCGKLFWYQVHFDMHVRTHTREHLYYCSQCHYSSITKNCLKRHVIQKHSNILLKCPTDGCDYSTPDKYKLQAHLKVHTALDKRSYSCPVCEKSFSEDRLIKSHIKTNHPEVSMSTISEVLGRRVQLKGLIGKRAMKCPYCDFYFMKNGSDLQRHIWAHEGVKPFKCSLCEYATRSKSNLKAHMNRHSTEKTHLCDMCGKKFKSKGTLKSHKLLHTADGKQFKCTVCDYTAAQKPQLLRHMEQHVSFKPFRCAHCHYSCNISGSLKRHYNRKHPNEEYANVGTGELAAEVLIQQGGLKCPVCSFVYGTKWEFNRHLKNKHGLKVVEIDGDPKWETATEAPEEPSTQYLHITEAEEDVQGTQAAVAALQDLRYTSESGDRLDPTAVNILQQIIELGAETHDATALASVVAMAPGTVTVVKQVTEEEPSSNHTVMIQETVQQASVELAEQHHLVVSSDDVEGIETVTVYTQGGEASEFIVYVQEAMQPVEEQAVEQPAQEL
UniProt O95365: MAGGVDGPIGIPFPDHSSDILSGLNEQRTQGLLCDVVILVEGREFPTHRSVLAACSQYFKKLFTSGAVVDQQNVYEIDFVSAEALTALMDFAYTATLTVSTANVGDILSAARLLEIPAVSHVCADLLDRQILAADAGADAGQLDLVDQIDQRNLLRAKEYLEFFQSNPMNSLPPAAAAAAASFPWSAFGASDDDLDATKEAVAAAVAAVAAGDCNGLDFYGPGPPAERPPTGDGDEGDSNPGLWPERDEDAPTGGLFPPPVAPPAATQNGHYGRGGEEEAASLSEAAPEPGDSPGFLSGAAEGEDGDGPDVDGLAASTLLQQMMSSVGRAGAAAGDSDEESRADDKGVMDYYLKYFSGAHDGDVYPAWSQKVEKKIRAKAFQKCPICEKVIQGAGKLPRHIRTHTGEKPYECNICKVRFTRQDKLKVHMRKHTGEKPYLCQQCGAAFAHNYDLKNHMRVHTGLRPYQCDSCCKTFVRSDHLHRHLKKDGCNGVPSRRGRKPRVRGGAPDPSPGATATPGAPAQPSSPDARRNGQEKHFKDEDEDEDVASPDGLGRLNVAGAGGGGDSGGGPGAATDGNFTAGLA
UniProt Q8N567: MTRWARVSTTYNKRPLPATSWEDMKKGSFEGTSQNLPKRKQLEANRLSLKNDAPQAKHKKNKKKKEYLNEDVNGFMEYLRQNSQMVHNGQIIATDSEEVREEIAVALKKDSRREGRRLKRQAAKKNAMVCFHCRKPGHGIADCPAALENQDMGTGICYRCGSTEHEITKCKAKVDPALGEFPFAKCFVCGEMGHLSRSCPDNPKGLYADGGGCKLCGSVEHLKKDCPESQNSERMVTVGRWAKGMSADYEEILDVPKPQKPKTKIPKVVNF
UniProt Q8IWT0: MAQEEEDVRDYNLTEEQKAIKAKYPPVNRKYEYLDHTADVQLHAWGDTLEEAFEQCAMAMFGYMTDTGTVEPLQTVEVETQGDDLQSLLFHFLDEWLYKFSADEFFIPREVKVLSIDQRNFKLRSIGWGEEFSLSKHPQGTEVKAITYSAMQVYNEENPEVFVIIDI
UniProt O43298: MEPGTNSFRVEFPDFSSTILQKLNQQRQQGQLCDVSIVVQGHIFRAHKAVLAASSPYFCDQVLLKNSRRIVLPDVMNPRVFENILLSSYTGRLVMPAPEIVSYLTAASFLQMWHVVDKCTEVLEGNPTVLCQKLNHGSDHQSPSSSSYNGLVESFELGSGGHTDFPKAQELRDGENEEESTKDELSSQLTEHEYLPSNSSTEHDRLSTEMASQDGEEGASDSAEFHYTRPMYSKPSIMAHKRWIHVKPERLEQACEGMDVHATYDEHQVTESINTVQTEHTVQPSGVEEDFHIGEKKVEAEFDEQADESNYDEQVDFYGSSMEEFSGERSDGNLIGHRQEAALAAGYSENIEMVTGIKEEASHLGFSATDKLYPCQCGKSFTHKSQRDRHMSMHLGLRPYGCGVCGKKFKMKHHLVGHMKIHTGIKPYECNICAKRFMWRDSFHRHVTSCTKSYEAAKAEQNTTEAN
UniProt O95625: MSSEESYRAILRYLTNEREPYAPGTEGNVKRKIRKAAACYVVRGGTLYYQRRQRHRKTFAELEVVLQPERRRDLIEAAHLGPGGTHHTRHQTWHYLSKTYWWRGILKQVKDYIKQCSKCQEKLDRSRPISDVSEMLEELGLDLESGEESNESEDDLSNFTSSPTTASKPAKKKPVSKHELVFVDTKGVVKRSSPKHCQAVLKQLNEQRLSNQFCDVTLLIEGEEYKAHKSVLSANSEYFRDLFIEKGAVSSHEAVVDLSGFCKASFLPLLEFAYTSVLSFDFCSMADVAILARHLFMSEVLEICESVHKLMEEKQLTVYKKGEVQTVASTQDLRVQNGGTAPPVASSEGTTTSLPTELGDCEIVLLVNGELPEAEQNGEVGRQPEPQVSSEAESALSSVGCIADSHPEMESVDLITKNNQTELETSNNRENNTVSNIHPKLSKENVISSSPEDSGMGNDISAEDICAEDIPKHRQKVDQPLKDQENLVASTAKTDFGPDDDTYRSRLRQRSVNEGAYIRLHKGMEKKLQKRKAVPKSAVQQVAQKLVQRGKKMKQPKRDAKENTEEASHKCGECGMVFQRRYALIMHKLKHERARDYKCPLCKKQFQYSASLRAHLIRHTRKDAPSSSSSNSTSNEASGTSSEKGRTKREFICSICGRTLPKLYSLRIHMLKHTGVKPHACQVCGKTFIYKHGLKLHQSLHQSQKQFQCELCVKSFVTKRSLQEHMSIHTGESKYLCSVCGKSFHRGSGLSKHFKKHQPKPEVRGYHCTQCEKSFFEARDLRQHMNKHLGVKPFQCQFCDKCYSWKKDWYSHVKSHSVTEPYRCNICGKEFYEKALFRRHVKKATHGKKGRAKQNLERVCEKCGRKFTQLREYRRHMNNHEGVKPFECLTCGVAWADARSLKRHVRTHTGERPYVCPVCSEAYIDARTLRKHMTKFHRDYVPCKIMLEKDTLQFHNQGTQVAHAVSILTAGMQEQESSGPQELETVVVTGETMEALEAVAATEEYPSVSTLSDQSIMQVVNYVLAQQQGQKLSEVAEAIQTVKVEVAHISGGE
UniProt Q9C0E2: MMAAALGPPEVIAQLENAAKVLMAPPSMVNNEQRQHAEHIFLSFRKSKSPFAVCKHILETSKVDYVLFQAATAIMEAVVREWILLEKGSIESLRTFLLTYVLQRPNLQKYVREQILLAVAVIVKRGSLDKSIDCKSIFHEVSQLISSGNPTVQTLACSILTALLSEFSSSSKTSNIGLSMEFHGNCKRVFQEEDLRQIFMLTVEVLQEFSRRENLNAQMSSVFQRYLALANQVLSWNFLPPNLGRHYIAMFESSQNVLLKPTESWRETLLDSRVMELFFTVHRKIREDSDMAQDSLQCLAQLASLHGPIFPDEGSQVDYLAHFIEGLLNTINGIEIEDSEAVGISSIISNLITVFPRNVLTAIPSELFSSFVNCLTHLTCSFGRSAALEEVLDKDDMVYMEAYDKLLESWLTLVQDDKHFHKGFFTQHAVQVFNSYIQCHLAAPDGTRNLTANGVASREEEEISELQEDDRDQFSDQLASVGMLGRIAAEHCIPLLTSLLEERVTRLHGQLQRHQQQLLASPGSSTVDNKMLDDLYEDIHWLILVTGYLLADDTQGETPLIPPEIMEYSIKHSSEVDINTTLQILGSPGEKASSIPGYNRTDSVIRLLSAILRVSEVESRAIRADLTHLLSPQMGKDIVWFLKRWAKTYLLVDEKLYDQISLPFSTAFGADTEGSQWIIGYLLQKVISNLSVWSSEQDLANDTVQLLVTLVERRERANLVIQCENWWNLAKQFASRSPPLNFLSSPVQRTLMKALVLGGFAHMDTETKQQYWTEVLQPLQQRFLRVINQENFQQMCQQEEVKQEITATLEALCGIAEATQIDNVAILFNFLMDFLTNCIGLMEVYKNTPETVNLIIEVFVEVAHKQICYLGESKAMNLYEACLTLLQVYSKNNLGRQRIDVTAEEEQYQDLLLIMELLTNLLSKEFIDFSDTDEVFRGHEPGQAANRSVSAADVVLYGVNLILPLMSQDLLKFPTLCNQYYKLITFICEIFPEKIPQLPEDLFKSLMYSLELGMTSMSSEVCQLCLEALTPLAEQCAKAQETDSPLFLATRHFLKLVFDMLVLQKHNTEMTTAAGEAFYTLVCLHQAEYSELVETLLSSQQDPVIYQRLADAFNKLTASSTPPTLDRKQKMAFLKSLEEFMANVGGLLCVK
UniProt O43542: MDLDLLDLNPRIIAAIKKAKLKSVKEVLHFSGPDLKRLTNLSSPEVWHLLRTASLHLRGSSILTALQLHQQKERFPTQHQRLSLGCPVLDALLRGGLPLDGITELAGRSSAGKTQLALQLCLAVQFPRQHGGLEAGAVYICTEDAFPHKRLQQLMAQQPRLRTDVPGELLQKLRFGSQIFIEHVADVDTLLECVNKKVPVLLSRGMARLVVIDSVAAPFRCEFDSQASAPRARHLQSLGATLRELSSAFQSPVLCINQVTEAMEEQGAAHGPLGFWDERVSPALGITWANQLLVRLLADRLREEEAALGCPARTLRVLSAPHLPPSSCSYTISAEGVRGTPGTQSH
UniProt Q9BQ24: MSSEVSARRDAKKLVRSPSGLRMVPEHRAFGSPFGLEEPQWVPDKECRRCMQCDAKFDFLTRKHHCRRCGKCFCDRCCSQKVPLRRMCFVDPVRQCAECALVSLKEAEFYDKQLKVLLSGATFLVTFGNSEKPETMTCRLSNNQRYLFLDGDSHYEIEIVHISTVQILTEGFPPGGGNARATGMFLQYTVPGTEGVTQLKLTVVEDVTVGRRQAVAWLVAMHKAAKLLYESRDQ
UniProt P86452: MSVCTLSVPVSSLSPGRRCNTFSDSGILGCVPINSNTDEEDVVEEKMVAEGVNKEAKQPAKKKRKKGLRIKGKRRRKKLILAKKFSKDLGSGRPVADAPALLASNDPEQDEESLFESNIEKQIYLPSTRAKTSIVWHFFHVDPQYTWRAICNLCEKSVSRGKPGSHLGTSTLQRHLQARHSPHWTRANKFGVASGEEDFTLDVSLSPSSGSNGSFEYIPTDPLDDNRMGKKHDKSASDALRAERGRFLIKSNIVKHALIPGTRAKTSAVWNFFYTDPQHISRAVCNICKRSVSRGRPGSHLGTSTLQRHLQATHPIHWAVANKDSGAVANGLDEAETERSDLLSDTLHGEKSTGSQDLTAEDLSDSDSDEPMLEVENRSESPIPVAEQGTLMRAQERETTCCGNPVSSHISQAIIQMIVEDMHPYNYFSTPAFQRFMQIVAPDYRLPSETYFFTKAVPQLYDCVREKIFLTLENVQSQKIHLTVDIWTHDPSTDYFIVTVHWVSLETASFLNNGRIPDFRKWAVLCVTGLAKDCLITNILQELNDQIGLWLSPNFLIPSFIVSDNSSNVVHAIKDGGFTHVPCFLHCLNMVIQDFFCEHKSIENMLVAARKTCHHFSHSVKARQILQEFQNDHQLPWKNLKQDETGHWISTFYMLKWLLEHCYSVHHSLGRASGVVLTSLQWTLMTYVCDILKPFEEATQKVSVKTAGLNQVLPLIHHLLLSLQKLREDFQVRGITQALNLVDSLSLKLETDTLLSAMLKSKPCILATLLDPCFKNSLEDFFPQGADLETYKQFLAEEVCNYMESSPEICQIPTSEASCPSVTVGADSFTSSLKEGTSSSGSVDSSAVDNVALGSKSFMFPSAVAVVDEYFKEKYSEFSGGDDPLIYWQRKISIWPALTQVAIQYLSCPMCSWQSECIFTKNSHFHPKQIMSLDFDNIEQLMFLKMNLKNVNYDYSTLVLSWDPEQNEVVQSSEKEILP

[1] = compound: Cc1nc(Nc2n[nH]c3c2CN(C(=O)N[C@H](CN(C)C)c2ccccc2)C3(C)C)c2sccc2n1
Procedure, shortened: as §1

[2] = compound: Cc1ncc(-c2ccnc(Nc3ccc(S(C)(=O)=O)cc3)n2)n1C(C)C
Procedure, shortened: as §1

tipifarnib = compound: Cn1cncc1[C@@](N)(c1ccc(Cl)cc1)c1ccc2c(c1)c(-c1cccc(Cl)c1)cc(=O)n2C [tipifarnib]
Procedure, shortened: as §1

[3] = compound: NC1(c2ccc(-c3nc4ccn5c(=O)[nH]nc5c4cc3-c3ccccc3)cc2)CCC1
Procedure, shortened: as §1

vorinostat = compound: O=C(CCCCCCC(=O)Nc1ccccc1)NO [vorinostat]
Procedure, shortened: as §1

silmitasertib = compound: O=C(O)c1ccc2c(c1)nc(Nc1cccc(Cl)c1)c1ccncc12 [silmitasertib]
Procedure, shortened: as §1

entospletinib = compound: c1cn2cc(-c3ccc4cn[nH]c4c3)nc(Nc3ccc(N4CCOCC4)cc3)c2n1 [entospletinib]
Procedure, shortened: as §1

dasatinib = compound: Cc1nc(Nc2ncc(C(=O)Nc3c(C)cccc3Cl)s2)cc(N2CCN(CCO)CC2)n1 [dasatinib]
Procedure, shortened: as §1

[4] = compound: Cn1cc(-c2ccc3c(c2)CCN3C(=O)Cc2cccc(C(F)(F)F)c2)c2c(N)ncnc21
Procedure, shortened: as §1

quisinostat = compound: Cn1cc(CNCC2CCN(c3ncc(C(=O)NO)cn3)CC2)c2ccccc21 [quisinostat]
Procedure, shortened: as §1

[5] = compound: NC(=O)Nc1cc(-c2cccc(F)c2)sc1C(=O)N[C@H]1CCCNC1
Procedure, shortened: as §1

[6] = compound: NC(=O)c1cnc(N[C@@H]2CCCC[C@@H]2N)nc1Nc1cccc(-n2nccn2)c1
Procedure, shortened: as §1

[7] = compound: NCC(=O)Nc1ccc(-n2nc(C(F)(F)F)cc2-c2ccc3c(ccc4ccccc43)c2)cc1
Procedure, shortened: as §1

[8] = compound: O=C1NC(=O)C(c2cnc3ccccn23)=C1c1cn2c3c(cc(F)cc13)CN(C(=O)N1CCCCC1)CC2
Procedure, shortened: as §1

Measured: log2 fold change

ZFAT (UniProt Q9P243)
inactive: nilotinib -0.11 | [1] 0.027 | [2] 0.18 | tipifarnib 0.169 | [3] -0.134 | vorinostat 0.084 | silmitasertib -0.086 | entospletinib -0.011

ZBTB7A (UniProt O95365)
inactive: dasatinib -0.035 | [4] 0.055 | quisinostat 0.056 | [5] -0.034 | [6] 0.115 | [3] 0.018 | [7] -0.078 | vorinostat 0.033 | silmitasertib -0.026 | [8] 0.238 | entospletinib -0.057

ZCCHC9 (UniProt Q8N567)
inactive: dasatinib 0.075 | [4] -0.052 | quisinostat -0.026 | [5] 0.014 | [6] 0.002 | [3] -0.049 | [7] -0.015 | vorinostat 0.123 | silmitasertib -0.118 | [8] 0.011 | entospletinib -0.025

ZFYVE26 (UniProt Q68DK2)
inactive: nilotinib -0.009 | [1] -0.107 | [2] 0.163 | quisinostat -0.087 | tipifarnib 0.107 | [5] 0.121 | [6] 0.114 | [3] -0.102 | [7] 0.07 | vorinostat -0.367 | silmitasertib 0.015 | [8] 0.013

ZBTB8OS (UniProt Q8IWT0)
inactive: nilotinib -0.035 | [1] 0.011 | dasatinib -0.013 | [2] -0.018 | [4] 0.029 | quisinostat 0.123 | tipifarnib 0.003 | [5] 0.016 | [6] -0.001 | [3] -0.023 | [7] 0.007 | vorinostat 0.082 | silmitasertib 0.036 | [8] 0.055 | entospletinib 0.002

ZBTB43 (UniProt O43298)
inactive: dasatinib 0.038 | [4] 0.026 | quisinostat 0.077 | [5] -0.005 | [6] 0.08 | [3] 0.03 | [7] 0.104 | vorinostat 0.097 | silmitasertib 0.004 | [8] 0.036 | entospletinib -0.006

ZDHHC14 (UniProt Q8IZN3)
inactive: nilotinib -0.029 | [1] -0.072 | dasatinib -0.054 | [2] 0.061 | [4] 0.003 | quisinostat -0.014 | tipifarnib 0.029 | [5] 0.071 | [6] -0.072 | [7] 0.013 | [8] -0.094 | entospletinib -0.018

Quoted at random: 2 entries already listed
ZBTB8OS (UniProt Q8IWT0)
inactive: nilotinib -0.035 | [1] 0.011 | dasatinib -0.013 | [2] -0.018 | [4] 0.029 | quisinostat 0.123 | tipifarnib 0.003 | [5] 0.016 | [6] -0.001 | [3] -0.023 | [7] 0.007 | vorinostat 0.082 | silmitasertib 0.036 | [8] 0.055 | entospletinib 0.002

ZDHHC14 (UniProt Q8IZN3)
inactive: nilotinib -0.029 | [1] -0.072 | dasatinib -0.054 | [2] 0.061 | [4] 0.003 | quisinostat -0.014 | tipifarnib 0.029 | [5] 0.071 | [6] -0.072 | [7] 0.013 | [8] -0.094 | entospletinib -0.018

Later entries.

ZBTB11 (UniProt O95625)
inactive: nilotinib -0.045 | [1] 0.019 | [2] -0.034 | quisinostat -0.002 | tipifarnib -0.01 | [5] 0 | [6] 0.194 | [3] 0.142 | [7] -0.122 | vorinostat -0.1 | silmitasertib -0.015 | [8] 0.148

XPO4 (UniProt Q9C0E2)
inactive: nilotinib -0.028 | [1] 0.031 | dasatinib -0.053 | [2] 0.013 | [4] 0.012 | quisinostat -0.056 | tipifarnib 0.01 | [5] 0.04 | [6] 0.005 | [3] 0.01 | [7] -0.023 | vorinostat -0.124 | silmitasertib 0.012 | [8] -0.011 | entospletinib 0.013

YEATS2 (UniProt Q9ULM3)
inactive: nilotinib -0.065 | [1] 0.169 | [2] 0 | quisinostat -0.06 | tipifarnib 0.015 | [5] 0.088 | [6] -0.06 | [3] -0.041 | [7] 0.043 | vorinostat -0.278 | silmitasertib -0.062 | [8] 0.005 | entospletinib -0.066

ZFP36L2 (UniProt P47974)
inactive: nilotinib -0.141 | [1] 0.011 | dasatinib -0.417 | [2] 0.05 | [4] 0.013 | quisinostat -0.306 | tipifarnib 0.044 | [5] 0.02 | [7] 0.07 | [8] 0.094 | entospletinib 0.044

ZFYVE1 (UniProt Q9HBF4)
inactive: nilotinib 0.203 | [1] -0.055 | dasatinib 0.084 | [2] -0.191 | [4] -0.02 | quisinostat -0.256 | tipifarnib 0.05 | [5] -0.002 | [6] -0.006 | [3] 0 | vorinostat 0.109 | silmitasertib 0.017 | [8] -0.069

ZC3H7B (UniProt Q9UGR2)
inactive: nilotinib 0.069 | [1] -0.057 | dasatinib -0.057 | [2] -0.038 | [4] 0.055 | quisinostat -0.028 | tipifarnib 0.005 | [5] 0.057 | [6] 0.04 | [3] 0.01 | [7] -0.078 | vorinostat -0.121 | silmitasertib -0.01 | [8] 0.01 | entospletinib 0.118

XRCC3 (UniProt O43542)
inactive: nilotinib 0.019 | [1] 0.002 | dasatinib -0.047 | [2] 0.035 | [4] 0.056 | quisinostat -0.017 | tipifarnib -0.028 | [5] 0.016 | [3] -0.026 | [7] 0.01 | vorinostat -0.155 | silmitasertib 0.02 | [8] 0.013

XRCC5 (UniProt P13010)
inactive: nilotinib 0.02 | [1] -0.021 | dasatinib -0.032 | [2] -0.016 | [4] 0.022 | quisinostat 0.004 | tipifarnib -0.002 | [5] 0.024 | [6] -0.005 | [3] -0.006 | [7] 0.017 | vorinostat -0.093 | silmitasertib 0.025 | [8] 0.018 | entospletinib 0.021

ZFYVE21 isoform 2 (UniProt Q9BQ24)
inactive: nilotinib -0.031 | [1] 0.027 | dasatinib -0.054 | [2] 0.024 | [4] -0.083 | quisinostat 0.002 | tipifarnib 0.023 | [5] -0.109 | [6] 0.09 | [7] -0.05 | [8] 0.047 | entospletinib -0.04

ZBED6 (UniProt P86452)
inactive: dasatinib -0.049 | [4] 0.022 | [6] -0.073 | [3] -0.127 | vorinostat 0.066 | silmitasertib 0.106

Source: the supplement of paper PMC10849652
